Reference: PubChem BioAssay AID504744 (Drosophila RNAi Screening Center, 2011)
The deposit covers about 23,000 reagents; below is a random part of those with a known target gene and a result. Over the whole deposit, 98 (0.43%) got an active call. 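Only hit calls are given; the phospho-dAkt signals, z-scores and hit direction were not deposited.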 The numbers tell different reagents against one gene apart. Names joined by + are all predicted targets of the reagent.

Assay: 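Identify dsRNAs that increase or decrease phospho-dAkt after insulin treatment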 (primary screen)
Cell system: Drosophila Kc167 cells
Knock-down reagent: long dsRNA against Drosophila genes, 250 ng dsRNA per well of a 384-well plate
Timing: 3 days of knock-down, then overnight serum-free starvation before stimulation
Conditions: bovine insulin at 387 nM for 10 minutes after 12 h without serum
Measurement: 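Per-well phospho-dAkt level from an in-cell fluorescent antibody stain, divided by a DNA-dye signal; log2 residuals turned into z-scores that take cell number into account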
Rule for the call: 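Hit in the insulin screen when the two-replicate mean z-score is more extreme than plus or minus 2.5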

no.	gene	dsRNA no.	outcome
1	Arl1 (GeneID 39745)	1	inactive
2	Trmt112 (GeneID 40343)	1	inactive
3	Aven (GeneID 32215)	1	inactive
4	CG4781 (GeneID 37943)	1	inactive
5	Ugt35D1 (GeneID 43708)	1	inactive
6	spel1 (GeneID 34842)	1	inactive
7	Taf12 (GeneID 41406)	1	inactive
8	Tap42 (GeneID 326166)	1	inactive
9	CG14860 (GeneID 41803)	1	inactive
10	AgmNAT (GeneID 31512)	1	inactive
11	mRpL23 (GeneID 38302)	1	inactive
12	CR11700 (retired record) (GeneID 5740245)	1	inactive
13	pira (GeneID 32229)	1	inactive
14	rha (GeneID 43071)	1	inactive
15	CG13029 (GeneID 39886)	1	inactive
16	CG31759 (GeneID 326158)	1	inactive
17	CG17707 (GeneID 5740408)	1	inactive
18	CG31517 (GeneID 251711)	1	inactive
19	CG32726 (GeneID 318175)	1	inactive
20	Pym (GeneID 37780)	1	inactive
21	CG3036 (GeneID 33695)	1	inactive
22	CG3036 (GeneID 33695)	2	inactive
23	CG5776 (GeneID 34680)	1	inactive
24	syd (GeneID 43905)	1	inactive
25	CG8001 (GeneID 38224)	1	inactive
26	hid (GeneID 40009)	1	inactive
27	Nt5b (GeneID 32822)	1	inactive
28	Nt5b (GeneID 32822)	2	inactive
29	Nt5b (GeneID 32822)	3	inactive
30	Nt5b (GeneID 32822)	4	inactive
31	Lar (GeneID 35259)	1	inactive
32	Lar (GeneID 35259)	2	inactive
33	Septin5 (GeneID 43990)	1	inactive
34	CG31533 (GeneID 318788)	1	inactive
35	CG15202 (GeneID 32052)	1	inactive
36	CG43737 (GeneID 32448)	1	inactive
37	Gcn2 (GeneID 43709)	1	inactive
38	Patronin (GeneID 36978)	1	inactive
39	Patronin (GeneID 36978)	2	inactive
40	Patronin (GeneID 36978)	3	inactive
41	CG1113 (GeneID 40629)	1	inactive
42	CG33286 (GeneID 2768984)	1	inactive
43	CG14085 (GeneID 40099)	1	inactive
44	CG14610 + asRNA:CR42738	1	inactive
45	tef (GeneID 36920)	1	inactive
46	tef (GeneID 36920)	2	inactive
47	Ir75c (GeneID 39983)	1	inactive
48	Dlic (GeneID 32057)	1	inactive
49	pb (GeneID 40826)	1	inactive
50	pb (GeneID 40826)	2	inactive
51	Unc-76 (GeneID 31179)	1	inactive
52	Unc-76 (GeneID 31179)	2	inactive
53	mRpS31 (GeneID 39749)	1	inactive
54	Rtnl2 (GeneID 40903)	1	inactive
55	Rtnl2 (GeneID 40903)	2	inactive
56	papi (GeneID 33401)	1	inactive
57	Pgam5-2 (GeneID 37899)	1	inactive
58	Met (GeneID 32114)	1	inactive
59	Datp (GeneID 318908)	1	inactive
60	CG1416 (GeneID 35426)	1	inactive
61	bma (GeneID 5740442)	1	inactive
62	bma (GeneID 5740442)	2	inactive
63	CG12795 (GeneID 33561)	1	inactive
64	CG4716 (GeneID 36471)	1	inactive
65	Rh3 (GeneID 42398)	1	inactive
66	CG34309 (GeneID 5740636)	1	inactive
67	Pcyt1 (GeneID 117353)	1	inactive
68	CG6254 (GeneID 41244)	1	inactive
69	CCKLR-17D3 (GeneID 32864)	1	inactive
70	CCKLR-17D3 (GeneID 32864)	2	inactive
71	CR11023 (GeneID 33155)	1	inactive
72	CG4080 (GeneID 39079)	1	inactive
73	PolE2 (GeneID 38661)	1	inactive
74	GstZ1 (GeneID 41132)	1	inactive
75	CG32599 (GeneID 318108)	1	inactive
76	Spn43Aa (GeneID 45041)	1	inactive
77	CHKov1 (GeneID 43067)	1	inactive
78	CHKov1 (GeneID 43067)	2	inactive
79	CHKov1 (GeneID 43067)	3	inactive
80	CHKov1 (GeneID 43067)	4	inactive
81	Slik (GeneID 37893)	1	inactive
82	CG3520 (GeneID 37708)	1	inactive
83	CG18404 (GeneID 43603)	1	inactive
84	CG42583 (GeneID 8674103)	1	inactive
85	drd (GeneID 318102)	1	inactive
86	drd (GeneID 318102)	2	inactive
87	CG1674 (GeneID 43780)	1	inactive
88	mnd (GeneID 39625)	1	inactive
89	CG5418 (GeneID 34663)	1	inactive
90	CG11726 (GeneID 39275)	1	inactive
91	CG6052 (GeneID 39971)	1	inactive
92	ttm3 (GeneID 35437)	1	inactive
93	elg1 (GeneID 39770)	1	inactive
94	Amyrel (GeneID 36863)	1	inactive
95	RhoGAP15B (GeneID 32686)	1	inactive
96	RhoGAP15B (GeneID 32686)	2	inactive
97	CG7685 (GeneID 42220)	1	inactive
98	RabGGTa (GeneID 40617)	1	inactive
99	vanin-like (GeneID 31551)	1	inactive
100	CG32640 + CG32641	1	inactive
101	CG6041 (GeneID 31527)	1	inactive
102	CG32160 (retired record) (GeneID 317889)	1	inactive
103	fd102C (GeneID 43843)	1	inactive
104	Mvd (GeneID 32520)	1	inactive
105	betaTry (GeneID 47901)	1	inactive
106	betaTry (GeneID 47901)	2	inactive
107	RfC4 (GeneID 38492)	1	inactive
108	CG32606 (retired record) (GeneID 318111)	1	inactive
109	CG32606 (retired record) (GeneID 318111)	2	inactive
110	CG32606 (retired record) (GeneID 318111)	3	inactive
111	CG32606 (retired record) (GeneID 318111)	4	inactive
112	Fpgs2 (GeneID 326159)	1	inactive
113	CG15876 (GeneID 38573)	1	inactive
114	Wnk (GeneID 40391)	1	inactive
115	Ctr9 (GeneID 38149)	1	inactive
116	WDR79 (GeneID 33865)	1	inactive
117	CG16995 (GeneID 33413)	1	inactive
118	CG42514 (GeneID 8674108)	1	inactive
119	CG31808 (GeneID 10178782)	1	inactive
120	sala (GeneID 34570)	1	inactive
121	CG13313 (GeneID 39022)	1	inactive
122	GNBP1 (GeneID 40034)	1	inactive
123	GNBP1 (GeneID 40034)	2	inactive
124	Adk1 (GeneID 41476)	1	inactive
125	Galk (GeneID 39031)	1	inactive
126	CG18081 (GeneID 39725)	1	inactive
127	CG13492 (GeneID 37487)	1	inactive
128	CG31183 (GeneID 41927)	1	inactive
129	CG31183 (GeneID 41927)	2	inactive
130	Mal-A6 (GeneID 246565)	1	inactive
131	CG13218 (GeneID 36177)	1	inactive
132	Root (GeneID 42860)	1	inactive
133	coro (GeneID 35596)	1	inactive
134	coro (GeneID 35596)	2	inactive
135	pen-2 (GeneID 251430)	1	inactive
136	Tg (GeneID 34093)	1	inactive
137	Rcd5 (GeneID 38478)	1	inactive
138	Sytbeta (GeneID 39630)	1	inactive
139	Sytbeta (GeneID 39630)	2	inactive
140	Inos (GeneID 35671)	1	inactive
141	CG17261 (GeneID 33522)	1	inactive
142	unk (GeneID 42738)	1	inactive
143	CG11349 (GeneID 38552)	1	inactive
144	Sap47 (GeneID 41938)	1	inactive
145	RpL15 (GeneID 3354918)	1	inactive
146	TwdlY (GeneID 318093)	1	inactive
147	CG11470 (GeneID 43480)	1	inactive
148	CG8929 (GeneID 37306)	1	inactive
149	CG8929 (GeneID 37306)	2	inactive
150	Mcm5 (GeneID 41296)	1	inactive
151	CG42710 (GeneID 10178945)	1	inactive
152	GstD3 (GeneID 48336)	1	inactive
153	CG5849 (GeneID 42556)	1	inactive
154	CG17075 (GeneID 33191)	1	inactive
155	CG14915 (GeneID 34536)	1	inactive
156	Cbl (GeneID 38961)	1	inactive
157	Cbl (GeneID 38961)	2	inactive
158	CG14212 (GeneID 32964)	1	inactive
159	CG10874 (GeneID 33394)	1	inactive
160	CG15210 (GeneID 50323)	1	inactive
161	CG6149 (GeneID 39277)	1	inactive
162	CecC (GeneID 43599)	1	inactive
163	SPARC (GeneID 43230)	1	inactive
164	COX2 (retired record) (GeneID 192470)	1	inactive
165	CG13088 (GeneID 34180)	1	inactive
166	Pp1-Y1 (GeneID 5740113)	1	inactive
167	CG15888 (GeneID 41630)	1	inactive
168	Grip75 (GeneID 34441)	1	inactive
169	CG42399 (GeneID 33176)	1	inactive
170	CG42399 (GeneID 33176)	2	inactive
171	CG9981 (GeneID 32609)	1	inactive
172	IKKepsilon (GeneID 35329)	1	inactive
173	AstC-R1 (GeneID 40020)	1	inactive
174	CG3163 (GeneID 37836)	1	inactive
175	CG8701 (GeneID 35812)	1	inactive
176	CG1671 (GeneID 36019)	1	inactive
177	nesd (GeneID 35298)	1	inactive
178	CG32554 (GeneID 32767)	1	inactive
179	AlkB (GeneID 2768870)	1	inactive
180	meso18E (GeneID 53448)	1	inactive
181	CG3635 (GeneID 35447)	1	inactive
182	Dna2 (GeneID 31934)	1	inactive
183	CG34430 (GeneID 5740489)	1	inactive
184	Dp (GeneID 36461)	1	inactive
185	CG18135 (GeneID 40073)	1	inactive
186	galene (GeneID 38133)	1	inactive
187	galene (GeneID 38133)	2	inactive
188	CG34251 (GeneID 5740860)	1	inactive
189	CG34251 (GeneID 5740860)	2	inactive
190	CG17931 + CG42446	1	inactive
191	CG12951 (GeneID 41110)	1	inactive
192	beta-PheRS (GeneID 42888)	1	inactive
193	Nagk (GeneID 41863)	1	inactive
194	ppk3 (GeneID 246504)	1	inactive
195	alpha-Est4aPsi (GeneID 3772290)	1	inactive
196	CG2065 (GeneID 35707)	1	inactive
197	CG2065 (GeneID 35707)	2	inactive
198	CG12617 (GeneID 50470)	1	inactive
199	CG4293 (GeneID 31001)	1	inactive
200	uzip (GeneID 38002)	1	inactive

Taken from above:
Mal-A6 (GeneID 246565), outcome = inactive
Entry for CG32640 + CG32641 under “outcome”: inactive
Under “outcome”, CG17707 (GeneID 5740408) shows inactive
Nt5b (GeneID 32822) #4, outcome: inactive
Entry for CG16995 (GeneID 33413) in “outcome”: inactive
CG8929 (GeneID 37306) #2, outcome → inactive
